Measured data: PubChem BioAssay AID652259 (Drosophila RNAi Screening Center, 2013)
The deposit covers about 22,000 reagents; shown is a random part of those that have a named target and a result. Of all reagents, 233 (1.1%) got an active call. 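Light values are raw, unnormalised plate reads; the ratio scores behind the reporter calls were not deposited.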 A number with no mark means an inactive call. A plus sign joins genes that one reagent is predicted to hit. Not stated in the record: the amount of reagent, the time to read-out, the dose of the treatment.

Screen: 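Genome-wide hunt for genes that control Wingless pathway activity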 (primary screen)
Cells: Drosophila clone 8 imaginal disc epithelial cells
Knock-down reagent: long dsRNA against Drosophila genes
Challenge: pathway stimulated by co-transfected Wingless expression plasmid
Detection: 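Dual luciferase reads per well after Wingless plasmid stimulation: reporter firefly light and Renilla control light; activity is firefly divided by Renilla, a ratio not deposited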
Scale: firefly reporter light: higher = more Wg reporter light, before normalisation; Renilla control light: higher = more transfected or surviving cells
Hit rule: 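a knock-down is a candidate when at least two out of four statistical tests show it departing from its plate mean; one test alone signals a weak candidate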
Calls: active = candidate regulator (raises or lowers reporter); inactive = not a candidate

predicted target	amplicon	reporter change call, replicate 1	firefly reporter light, replicate 1	firefly reporter light, replicate 2	Renilla control light, replicate 1	Renilla control light, replicate 2
Mettl3 (Methyltransferase like 3)	DRSC15921		13296		13328	
Rtca (RNA 3'-terminal phosphate cyclase)	DRSC18517		2839	6729	1264	2870
CG31207	DRSC21886		4.84e5	5.63e5	1.77e5	2.35e5
CG10343	DRSC02041		2288	7713	257	3858
CG18662	DRSC02691		3483	8513	832	3600
CG12016 + Dpm2	DRSC08224		4211		1302	
ppk25 (pickpocket 25)	DRSC04973		2544	6651	797	2800
deltaCOP (Coat Protein (coatomer) delta)	DRSC18760		1570	5448	746	1947
Prosbeta2R2 (Proteasome beta2 subunit-related 2)	DRSC12193		13825		1987	
per (period)	DRSC18818		13619		9463	
lncRNA:CR43421 (long non-coding RNA:CR43421)	DRSC05819		24695		17241	
Cyp317a1 (Cytochrome P450 317a1)	DRSC07366		4733		1952	
CG1105	DRSC12528		2721		1323	
CG3408	DRSC10360		5072		2608	
PpD6 (Protein phosphatase D6)	DRSC00774		1956	7607	597	2331
Obp50d (Odorant-binding protein 50d)	DRSC05483		17249		13984	
snoRNA:Me28S-A982b + Uhg4 + snoRNA:Me28S-G3255a + 1 more	DRSC05143		18682		9243	
a10 (antennal protein 10)	DRSC11319		8804		3568	
ATPsynepsilonL (ATP synthase, epsilon subunit-like)	DRSC14548		9868		4544	
CG8675	DRSC20117		2176	8123	1068	3424
Npc2e (Niemann-Pick type C-2e)	DRSC15522		20999		7315	
Npc2e (Niemann-Pick type C-2e)	DRSC22338		4.58e5	4.72e5	1.10e5	1.11e5
RpLP1 (Ribosomal protein LP1)	DRSC00783		2192	7850	848	3037
RpLP1 (Ribosomal protein LP1)	DRSC22145		4.14e5	4.35e5	1.07e5	1.28e5
Dp (DP transcription factor)	DRSC07402	Wg reporter activity lowered (active)	8725		4988	
Gnptab	DRSC07057		3168	5863	746	2172
Arp1 (Actin-related protein 1)	DRSC14118		13552		3572	
Obp57a (Odorant-binding protein 57a)	DRSC22047		5.41e5	5.66e5	2.48e5	2.44e5
CG11598	DRSC14331		17584		6315	
Sox102F	DRSC17204		3440	8081	1302	3077
Dhps (Deoxyhypusine synthase)	DRSC10948		3047	8139	1305	3264
Mhcl (Myosin heavy chain-like)	DRSC13130		1874		949	
Mhcl (Myosin heavy chain-like)	DRSC14216		13329		3309	
Mhcl (Myosin heavy chain-like)	DRSC16753		17431		3613	
cac (cacophony)	DRSC19743		19089		9360	
cac (cacophony)	DRSC20354		1673	6416	864	1888
RpS8 (Ribosomal protein S8)	DRSC16318		5922		2384	
Ctu2 (Cytosolic thiouridylase subunit 2)	DRSC02024		15074		4793	
SppL (Signal peptide peptidase-like)	DRSC15228		18353		15657	
COX5BL (Cytochrome c oxidase subunit 5B-like)	DRSC02123		2829	8738	981	3363
h-cup + Rbp	DRSC14990		20513		3732	
pot (papillote)	DRSC19850		2609	6554	1129	2608
CG15803	DRSC15121		12291		3872	
Trc8 (TRC8 ring finger protein)	DRSC15437		3088	6822	1383	2624
vret (vreteno)	DRSC15640		2434	9065	1524	2496
ihog (interference hedgehog)	DRSC03157		12675		4250	
CG7333	DRSC16229		17204		4592	
CG11060	DRSC06029		10784		3332	
Hsp27 (Heat shock protein 27)	DRSC11190		4696		1383	

Sorted by “firefly reporter light, replicate 1” (low to high): 7 of the entries above
predicted target	amplicon	reporter change call, replicate 1	firefly reporter light, replicate 1	firefly reporter light, replicate 2	Renilla control light, replicate 1	Renilla control light, replicate 2
cac (cacophony)	DRSC20354		1673	6416	864	1888
COX5BL (Cytochrome c oxidase subunit 5B-like)	DRSC02123		2829	8738	981	3363
RpS8 (Ribosomal protein S8)	DRSC16318		5922		2384	
Ctu2 (Cytosolic thiouridylase subunit 2)	DRSC02024		15074		4793	
SppL (Signal peptide peptidase-like)	DRSC15228		18353		15657	
cac (cacophony)	DRSC19743		19089		9360	
h-cup + Rbp	DRSC14990		20513		3732	
